Results taken from patent US8168391B2, “Method for modulating insulin production” (Burnham Institute for Medical Research, priority 2007, dated 2012).

Tested on: insulin promoter
Assay: Insulin promoter/reporter screen in the presence of a fatty acid (reversal of palmitate-induced lipotoxicity)
Assay type: cell-based, human
Conditions: screen in presence of fatty acid (FIG. 20) vs not in presence (FIG. 19)
Excerpt: The assays employ a cell line derived from human fetal islet cells (T6PNE) in which the cells are infected with a promoter/reporter construct. The construct is shown in FIG. 7 and incorporates an insulin promoter operably linked to an eGFP. Cells were infected and plated, and candidate libraries screened and “hit” detected as discussed in Example 1.
To differentiate between agents that specifically act to reverse lipotoxicity as compared to generally increasing transcription of insulin a two layer screening approach was utilized. In the first layer, islet cells infected with an insulin promoter/reporter construct are screened in the absence of a fatty acid. A “hit” indicates an agent that is capable of increasing insulin transcription. In the second layer, islet cells infected with an insulin promoter/reporter construct are screened in the presence of a fatty acid. A “hit” indicates a drug that reverses the effects of the fatty acid addition, for example reduction of insulin transcription. This drugs screened in both layers may be used to identify whether the drug is specific to lipotoxicity reversal. For example, drugs that are “hits” in the second layer screen but not in the first layer screen are specific to lipotoxicity reversal.

Q: `CC(C)[N+]1(C)[C@@H]2CC[C@H]1C[C@@H](OC(=O)C(CO)c1ccccc1)C2.O.[Br-]` (stereo partly shown) [ipratropium bromide monohydrate] was tested. Which “reversal of palmitate-induced lipotoxicity” value did it give?
A: Its value is “expected to reverse lipotoxicity”.
